Columns and labels:
[1] = Peripheral blood lipid mediator profiles pre and post-exercise in healthy volunteers (LC-MS-MS); assay type: in vivo, human; conditions: endogenous level, mean, n=4
[2] = Plasma lipid mediator levels in reference plasma, healthy volunteers and sepsis patients (LC-MS-MS); assay type: in vivo, human; conditions: endogenous level; for Reference Plasma lipid mediator level: NIST SRM 1950 plasma, mean; for Healthy Volunteer lipid mediator level / Sepsis Patients Plasma lipid mediator level: plasma; for Healthy Volunteer lipid mediator level: n=4, mean; for Sepsis Patients Plasma lipid mediator level: n=9, mean

Row | Compound | Post-Exercise lipid mediator level [1] [pg/mL] | Pre-Exercise lipid mediator level [1] [pg/mL] | Reference Plasma lipid mediator level [2] [pg/mL] | Healthy Volunteer lipid mediator level [2] [pg/mL] | Sepsis Patients Plasma lipid mediator level [2] [pg/mL]
1 | 7,8,13-trihydroxy-docosapentaenoic [RvT2] | 2.7 | 0.6 | 2.2 | 1.2 | 10.0
2 | CC/C=C\C[C@H](O)/C=C/C=C\C/C=C\C/C=C\C=C\[C@@H](O)CCC(=O)O [RvD6] | 56.0 | 37.8 | 1.5 | 27.6 | 121.8
3 | CCC(O)/C=C/C=C\C=C\C(O)C/C=C\C=C\C(O)CCCCCC(=O)O (stereo not shown) [RvT1, 7,13,20-trihydroxy-docosapentaenoic acid] | 3.6 | 1.8 | 5.0 | 2.9 | 6.6
4 | CCC=CCC=CC=CC(O)C(O)C=CC=CC(O)CCCCCC(=O)O (stereo not shown) [RvT3, 7,12,13-trihydroxy-docosapentaenoic acid] | 1.8 | 0.8 | 1.0 | 0.9 | 17.5
5 | CC/C=C\C/C=C\C=C\C(O)C/C=C\C=C\C(O)CCCCCC(=O)O (stereo not shown) [RvT4, 7,13-dihydroxy-docosapentaenoic acid] | 1.8 | 0.8 | 7.3 | 1.4 | 15.2

Reference: patent US11555006B2, “Elucidation of novel 13-series resolvins that increase with atorvastatin and clear infections” (The Brigham and Women's Hospital, Inc., priority 2015, dated 2023)
